PubChem BioAssay (NCATS)
The list shows a part of the results. These are further read-outs of the screen, such as a control signal, another cell line or another target. No call is given for them. The list favours compounds with an active or inconclusive main result. Potencies come from curve fits of mixed quality, noted in brackets.

test: qHTS for identification of novel therapeutic agents for treatment of microphthalmiaassociated transcription factor (MiT) renal cell carcinoma (RCC) (AID 1963991); settings: TFE3-RCC viability, CellTiter-Glo, 48 h; measured here: UOK145 cell viability
Summary of the method: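 Curves over 11 concentrations were fitted to CellTiter-Glo luminescence, scaled between empty wells (0%) and DMSO (100%) viability. Cells were UOK109, UOK124 and UOK145 TFE3-fusion RCC lines at 500/well, exposed 48 hours at 37 C.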

Compound | AC50
Nc1nccc(Oc2ccc(NC(=O)c3c[nH]cc(-c4ccc(F)cc4)c3=O)cc2F)c1Cl | 20.9 µM [falling, partial curve]
CC[C@@H]1C(=O)N(C)c2cnc(Nc3ccc(C(=O)NC4CCN(C)CC4)cc3OC)nc2N1C1CCCC1 | 16.6 µM [falling, partial curve]
CCS(=O)(=O)c1cccc(-c2cc(C(=O)NC3CCN(C)CC3)c(C)c3[nH]c4ncc(C)cc4c23)c1 | 20.9 µM [falling, partial curve]
CNC1CCC(N(Cc2cccc(-c3ccncc3)c2)C(=O)c2sc3ccccc3c2Cl)CC1 (centres undefined) | 16.6 µM [falling, partial curve]
CC(C)CNc1ccnc(NCc2csc(-c3ccccc3)n2)n1 | 29.6 µM [falling, single point]
CN1CCN(CCOc2cc(OC3CCOCC3)c3c(Nc4c(Cl)ccc5c4OCO5)ncnc3c2)CC1 | 3.72 µM [falling, full curve]
COc1cc2c(cc1OC)CN(CCc1ccc(NC(=O)c3cccc4c(=O)c5cccc(OC)c5[nH]c34)cc1)CC2 | 16.6 µM [falling, partial curve]
CCn1cc(-c2ccnc3[nH]c(-c4cccc(CN(C)C)c4)cc23)c(-c2ccc(NC(=O)N(C)C)cc2)n1 | 10.5 µM [falling, partial curve]
C=CC(=O)Nc1cccc(Oc2nc(Nc3ccc(N4CCN(C)CC4)cc3)ncc2Cl)c1 | 4.18 µM [falling, partial curve]
